Here are results for 1 molecule from PMC9129000.

This test addresses T1, EIN3 (UniProt O24606).
T1 sequence: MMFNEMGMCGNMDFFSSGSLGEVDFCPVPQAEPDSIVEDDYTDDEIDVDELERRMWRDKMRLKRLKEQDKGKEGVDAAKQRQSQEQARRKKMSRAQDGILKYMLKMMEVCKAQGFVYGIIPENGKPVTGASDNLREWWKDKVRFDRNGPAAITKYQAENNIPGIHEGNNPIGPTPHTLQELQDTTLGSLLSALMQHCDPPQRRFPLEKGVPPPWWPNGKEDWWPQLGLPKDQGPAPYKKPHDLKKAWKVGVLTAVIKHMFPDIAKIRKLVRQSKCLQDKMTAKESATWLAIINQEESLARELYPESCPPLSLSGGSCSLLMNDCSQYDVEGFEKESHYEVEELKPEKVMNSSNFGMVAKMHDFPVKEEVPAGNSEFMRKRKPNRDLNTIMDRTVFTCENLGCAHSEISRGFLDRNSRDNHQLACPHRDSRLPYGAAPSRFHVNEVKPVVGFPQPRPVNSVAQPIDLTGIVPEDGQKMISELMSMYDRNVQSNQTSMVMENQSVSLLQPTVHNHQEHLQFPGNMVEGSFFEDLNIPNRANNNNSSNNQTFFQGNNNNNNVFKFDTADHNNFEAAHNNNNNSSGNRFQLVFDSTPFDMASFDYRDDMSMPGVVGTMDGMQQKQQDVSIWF
Briefly: two-hybrid; GAL4 AD and BD fusions co-transformed in yeast strain AH109; serial dilutions spotted on SD-LW and SD-LWH media; 30°C.

No constants are given. Whether binding was seen depends on the method and setting. Some binding calls cover weakened binding; strength is not graded here.

B1: F-box protein EBF2 (protein, UniProt Q708Y0 1-623)
chain: MSGIFRFSGDEDCLLGGSMYLSPGSCPGVYYPARKRLRVAATSFYSGFEEKQTSIDVLPEECLFEILRRLPSGQERSACACVSKHWLNLLSSISRSEVNESSVQDVEEGEGFLSRSLEGKKATDLRLAAIAVGTSSRGGLGKLQIRGSGFESKVTDVGLGAVAHGCPSLRIVSLWNLPAVSDLGLSEIARSCPMIEKLDLSRCPGITDSGLVAIAENCVNLSDLTIDSCSGVGNEGLRAIARRCVNLRSISIRSCPRIGDQGVAFLLAQAGSYLTKVKLQMLNVSGLSLAVIGHYGAAVTDLVLHGLQGVNEKGFWVMGNAKGLKKLKSLSVMSCRGMTDVGLEAVGNGCPDLKHVSLNKCLLVSGKGLVALAKSALSLESLKLEECHRINQFGLMGFLMNCGSKLKAFSLANCLGISDFNSESSLPSPSCSSLRSLSIRCCPGFGDASLAFLGKFCHQLQDVELCGLNGVTDAGVRELLQSNNVGLVKVNLSECINVSDNTVSAISVCHGRTLESLNLDGCKNITNASLVAVAKNCYSVNDLDISNTLVSDHGIKALASSPNHLNLQVLSIGGCSSITDKSKACIQKLGRTLLGLNIQRCGRISSSTVDTLLENLWRCDILY
As for B1, the binding result is listed as “binds”.
